# Screening data, single-dose tests

The filed quantity is “Percent Effect” (%). The controls that fix the scale are not given in the record; negative values are as filed. This is an unselected part of the compounds tested.

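Whole-parasite assay of Trypanosoma brucei over 72 hours; the read-out is not stated. Concentration: 30 µM. Higher reads as stronger inhibition (inferred: compounds with an IC50 in retests scored well above the rest). Values scatter widely below zero; nearly all retest evidence comes from the higher of the two concentrations used. Size under these conditions: about 64,000 compounds, about 940 of them at 50% or above in at least one test.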

Compound,percent effect
CCc1noc(CN2CCN(C(=O)c3ccccn3)CC2)n1,18.96
OC(CNCc1nnc2ccccn12)c1ccc2c(c1)OCO2 (centres unmarked),-70.13
Cl.NCCNS(=O)(=O)Cc1ccc(Br)cc1,-53.5
[H][C@@]12CN(C3CCOCC3)C[C@]1([H])N(CCc1ccc(OC)cc1)C(=O)O2,-34.87
CC(C)c1ccc(CNC(C)c2ccc(S(C)(=O)=O)cc2)cc1 (centres unmarked),-24.52
COCc1nc2nc(O)c3c(n2n1)NC(=O)CC3c1ccccc1Cl (centres unmarked),-22.64
CC(C)(C)c1cc(C[C@H]2CNCC[C@H]2CC(=O)NC2CCCCC2)no1,-5.913
CCC(NC(=O)c1c(C(=O)O)cnn1C)c1ccc(C)cc1C (centres unmarked),-14.97
CN(C)c1cc2c(nn1)CCN(C(=O)Cc1ccc3c(c1)CCC3)C2,10.1
O=C(CN1CCOC(Cn2cccn2)C1)NCc1ccccn1 (centres unmarked),-15.01
CCc1nc(C2CCCN2CCC(=O)N2CCc3ccccc32)no1 (centres unmarked),-33.91
Cc1nc(C2(O)CCCNCC2)sc1CCOc1ccccc1F.Cl (centres unmarked),74.4
CN1CCC(N2CCOC[C@H](OCC(=O)N(C)C)C2)CC1,-11.08
CCc1nnsc1C(=O)N1CCOC(c2nc(C(C)C)n[nH]2)C1 (centres unmarked),-38.81
O=C1NCCCC[C@@H]1NC(=O)C1(N2CCCCC2)Cc2ccccc2C1,-5.769
CN1CCCN(C[C@H]2C[C@H](CO)CN(Cc3cccnc3N)C2)CC1,-40.65
CC[C@@H]1N(Cc2nccs2)CCC[C@]12CCC(=O)N2C.O=C(O)C(F)(F)F,-31.28
O=C(O)C(F)(F)F.O=C(O)C(F)(F)F.[H][C@@]12CN(Cc3cc[nH]n3)C[C@]1([H])OCCN2CC1CC1,-4.439
CC(C)CN1CCCC2(CCN(c3ccc(C#N)cn3)C2)C1.O=C(O)C(F)(F)F (centres unmarked),-6.539
O=C(CN1CC(c2ccccc2)CC1=O)NCc1cc2n(n1)CCNC2 (centres unmarked),0.5085
Cc1noc(C)c1CNC1CCN(c2ccccc2OC(F)F)C1 (centres unmarked),-26.86
Cc1cccc(C(=O)N2CCN(C(=O)Cc3ccccn3)CC2)c1C,-0.6298
CC(C)(O)c1cc(CC2(NCc3ccco3)COC2)no1,-3.843
CC(C(=O)N1CCCN(c2ncccc2C#N)CC1)n1ccnc1 (centres unmarked),-5.226
Cc1nc(CN2C(=O)CCC23CCN(c2ncccc2C)CC3)cs1,-11.39
O=C(NCC1CC1)C1CN(C(=O)c2cccc(Cl)c2)CC12CCOCC2 (centres unmarked),-23.48
CN1Cc2cc(F)ccc2N(CC(O)C(F)(F)F)CCC1=O (centres unmarked),-26.91
CC(C)(C)c1ccc2c(c1)CCN2C(=O)c1ccc(=O)[nH]n1,-26.34
CC(C)c1nn(C)c(N(C)C)c1CNC(C)c1ccc2c(c1)OCO2.Cl (centres unmarked),-32.7
COc1ccc(C2CCCCCN2Cc2cn(C)nc2C)cc1 (centres unmarked),10.93
COc1ccc2nnc(CCCC(=O)NCCc3ccncc3)n2n1,2.987
COc1cccc2c1OCCCN(Cc1c[nH]nc1C(=O)O)C2,-32.23
O=C(c1ccc(-n2cnnc2)cc1Cl)N1CCCC(O)(CO)CC1 (centres unmarked),-35.52
O=C(Cn1cccnc1=O)NC(Cc1ccsc1)c1nccs1 (centres unmarked),-8.464
O=C(NCC1(CO)CC1)c1cccc2ccccc12,-75.74
CS(=O)(=O)NC1CCN(C(=O)CCn2cccn2)CC1,-24
O=C(O)CCn1ccc2cc(Br)ccc21,-34.34
O=C(NCCc1cccnc1)N1CCCC1c1ccsc1 (centres unmarked),4.572
Cc1cnn(C2CCCN(C(=O)c3ccnc(N(C)C)c3)C2)c1 (centres unmarked),2.569
Fc1ccc(-c2nc(CN3CCn4c(nnc4C4CC4)C3)co2)cc1,-3.748
[H][C@]12CN(Cc3scnc3C)C[C@@]1([H])OCCN(S(C)(=O)=O)C2,-15.29
COCC(=O)N1CCCC1c1cc(Nc2nnc(C)s2)nc(C)n1 (centres unmarked),12
COCC(=O)NC(C)c1cccc(Br)c1 (centres unmarked),3.068
CC(c1ccc(C(F)(F)F)cc1)N1CCN(CCS(C)(=O)=O)CC1 (centres unmarked),-22.02
CC[C@H]1CN(C(=O)C2CC2)CC[C@H]1CC(=O)NCCN1CCOCC1,-6.818
O=C(NC1CC1)C1=CC2(CCN(CCO)CC2)c2ccccc21.O=C(O)C(F)(F)F,-19.93
CC(C)c1nnc(NC(=O)CCc2cc(F)ccc2F)[nH]1,-100.9
O=S1(=O)N=C(CSCc2ccccc2)Nc2ccccc21,4.335
CC(Nc1nc(-c2ccncc2)nc2c1CCNC2)c1ccccc1 (centres unmarked),-57.19
Cc1cc2nc(C(C)C)cc(NCCc3cccn3C)n2n1,-4.278
CC(C)N(C)Cc1ncn2c1CN(S(=O)(=O)c1cccs1)CCC2.O=C(O)C(F)(F)F,-12.24
Cc1noc(C)c1CN1CCCC(c2noc(C3CC3)n2)C1 (centres unmarked),-12.15
O=C(O)c1nn(CC2CC2)c2c1CN(S(=O)(=O)c1cccnc1)CC2,0.556
CCCn1[nH]cc/c1=N\C(=O)CN1CCCC1Cn1cccn1 (centres unmarked),-9.622
CC(C)c1noc(C(C)N2CCN(Cc3nc4ccccc4[nH]3)CC2)n1 (centres unmarked),-3.862
Cc1noc(C)c1CN1CCC(c2ccnn2CCO)CC1,10.31
CN1C(=O)CCCC12CCCN(Cc1cccs1)C2.O=C(O)C(F)(F)F (centres unmarked),-11.46
CCn1nccc1CN(C)C(=O)Cn1cc2c(n1)c(C)nn2CC,-2.456
Cc1ccc(CN[C@@H]2CO[C@H](CNS(=O)(=O)c3ccccc3)[C@H]2O)cc1,-0.5292
CCCOCC1CCN(C(=O)c2cnc(-c3cccnc3)nc2O)C1 (centres unmarked),15.04
O=C1CNc2ncnc(NCc3cccs3)c2N1,-13.7
CC(=O)N1CCN(Cc2csc(-c3cnn(C)c3)n2)CC1,-4.159
CNc1nc(C(=O)N2CCCn3nc(C(=O)N4CCCC4)cc3C2)cs1,-0.1449
COc1ccc(C(=O)Nc2ccc3ncn(C(C)C)c(=O)c3c2)cc1,-5.606
CCS(=O)(=O)N1CCC(C(=O)NC(Cc2ccsc2)c2nccs2)CC1 (centres unmarked),12.02
Cc1nnc(C(C)N(C)Cc2c(C)nn(-c3ccccc3)c2C)o1 (centres unmarked),-24.85
COCCNC(=O)CCNc1ccc(Cl)cn1,-127.9
O=C(CSc1nc2c(cnn2CCO)c(=O)[nH]1)N1CCCCCC1,-81.32
Cn1cccc1C(O)CNC(=O)COc1ccc(Cl)cc1Cl (centres unmarked),46.86
Cc1ccc(N2CCCC(NCCS(C)(=O)=O)C2)nn1 (centres unmarked),-1.261
CC(CO)NC(=O)Nc1ccc(CC#N)cc1 (centres unmarked),-27.07
CC(C)N1CC2(CCC1=O)CCN(C(=O)c1cc(F)ccc1Cl)CC2,13.88
CN(C)C1COC2(CCN(C(=O)c3cccnc3)CC2)C1 (centres unmarked),1.353
O=C(O)CCc1cccc(C2CCCN2Cc2ccc(F)c(F)c2)n1 (centres unmarked),15.74
COc1cc(C(=O)N2CCCS2(=O)=O)ccc1OC(C)C,-2.047
CN(C)S(=O)(=O)N1CC(c2nc(-c3ccsc3)no2)C1,-11.34

The last 4 entries again:

* CN(C)C1COC2(CCN(C(=O)c3cccnc3)CC2)C1 (centres unmarked) | 1.353%
* O=C(O)CCc1cccc(C2CCCN2Cc2ccc(F)c(F)c2)n1 (centres unmarked) | 15.74%
* COc1cc(C(=O)N2CCCS2(=O)=O)ccc1OC(C)C | -2.047%
* CN(C)S(=O)(=O)N1CC(c2nc(-c3ccsc3)no2)C1 | -11.34%

Data taken from ChEMBL document CHEMBL3988442, “University of Dundee, Small-Polar-MMV Screening Library” (2021).